Record: PubChem BioAssay AID602196 (INSERM, 2012)

Screen: 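Genes whose knock-down alters cisplatin killing of lung cancer cells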
Cells: human A549 lung cancer cells
Reagent: siRNA pair against human genes
Duration: 48 h transfection before cisplatin; time from cisplatin to read-out not stated
Conditions: cisplatin at a dose killing half of control-siRNA cells; exact dose and duration not given
Read-out: 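Shift in cisplatin death relative to control siRNA, from -50 (all cells die) to +50 (no cells die); siRNAs harmful on their own scored 0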
Scale: two-siRNA summed score (-2 to +2): higher = both siRNAs protect from cisplatin killing; -2 means both sensitise; mean protection from cisplatin (shift in death): higher = protection from cisplatin killing
Hit rule: 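siRNAs harmful alone (LDH or WST-1) get 0; others get +1 for less and -1 for more cisplatin killing; genes are active when the two siRNAs give the same sign, summing to ±2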
Calls: active = both siRNAs shift cisplatin killing the same way; inactive = no consistent shift, or siRNA harmful alone
Here is one part, drawn at random, of about 23,000 reagents tested. Over the whole deposit, 455 (2%) are marked active. 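Active includes both protection and sensitisation; some change values fall well beyond the stated -50 to +50 range.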 A number with no mark means an inactive call. Further read-outs or replicates are left out here. No sequences are given here. Not given: the amount of reagent.

{"Target gene": "ASF1B", "two-siRNA summed score (-2 to +2)": 0, "mean protection from cisplatin (shift in death) (%)": 7.6}
{"Target gene": "LOC200230", "two-siRNA summed score (-2 to +2)": -1, "mean protection from cisplatin (shift in death) (%)": 4.1}
{"Target gene": "DCAF17", "two-siRNA summed score (-2 to +2)": 0, "mean protection from cisplatin (shift in death) (%)": -2.3}
{"Target gene": "ELMOD3", "two-siRNA summed score (-2 to +2)": 0, "mean protection from cisplatin (shift in death) (%)": 8.7}
{"Target gene": "LOC158830", "two-siRNA summed score (-2 to +2)": 0, "mean protection from cisplatin (shift in death) (%)": 16.6}
{"Target gene": "LOC158957", "two-siRNA summed score (-2 to +2)": 0, "mean protection from cisplatin (shift in death) (%)": 9.9}
{"Target gene": "DOCK2", "two-siRNA summed score (-2 to +2)": 0, "mean protection from cisplatin (shift in death) (%)": 8.4}
{"Target gene": "PIWIL3", "two-siRNA summed score (-2 to +2)": 0, "mean protection from cisplatin (shift in death) (%)": 3.9}
{"Target gene": "PIP5K1A", "two-siRNA summed score (-2 to +2)": 1, "mean protection from cisplatin (shift in death) (%)": 7.7}
{"Target gene": "FRYL", "two-siRNA summed score (-2 to +2)": 0, "mean protection from cisplatin (shift in death) (%)": 12.1}
{"Target gene": "VAMP4", "two-siRNA summed score (-2 to +2)": -1, "mean protection from cisplatin (shift in death) (%)": -6.3}
{"Target gene": "POLR2J2", "two-siRNA summed score (-2 to +2)": 0, "mean protection from cisplatin (shift in death) (%)": 6.5}
{"Target gene": "CYP26C1", "two-siRNA summed score (-2 to +2)": 0, "mean protection from cisplatin (shift in death) (%)": 9}
{"Target gene": "LOC401607", "two-siRNA summed score (-2 to +2)": 0, "mean protection from cisplatin (shift in death) (%)": 4}
{"Target gene": "MCM2", "two-siRNA summed score (-2 to +2)": 0, "mean protection from cisplatin (shift in death) (%)": -3.4}
{"Target gene": "LOC400748", "two-siRNA summed score (-2 to +2)": 0, "mean protection from cisplatin (shift in death) (%)": -4.4}
{"Target gene": "RAB2A", "two-siRNA summed score (-2 to +2)": 1, "mean protection from cisplatin (shift in death) (%)": -2.5}
{"Target gene": "S100Z", "two-siRNA summed score (-2 to +2)": 0, "mean protection from cisplatin (shift in death) (%)": 2.9}
{"Target gene": "NDOR1", "two-siRNA summed score (-2 to +2)": 0, "mean protection from cisplatin (shift in death) (%)": 16}
{"Target gene": "SHROOM1", "two-siRNA summed score (-2 to +2)": 0, "mean protection from cisplatin (shift in death) (%)": 17.4}
{"Target gene": "LOC441209", "two-siRNA summed score (-2 to +2)": 1, "mean protection from cisplatin (shift in death) (%)": 6.4}
{"Target gene": "GON7", "two-siRNA summed score (-2 to +2)": 0, "mean protection from cisplatin (shift in death) (%)": -3.2}
{"Target gene": "SLC22A9", "two-siRNA summed score (-2 to +2)": -1, "mean protection from cisplatin (shift in death) (%)": -13.8}
{"Target gene": "EFEMP2", "two-siRNA summed score (-2 to +2)": 0, "mean protection from cisplatin (shift in death) (%)": 5.5}
{"Target gene": "PAQR4", "two-siRNA summed score (-2 to +2)": 0, "mean protection from cisplatin (shift in death) (%)": 13.1}
{"Target gene": "WDHD1", "two-siRNA summed score (-2 to +2)": -1, "mean protection from cisplatin (shift in death) (%)": -9.4}
{"Target gene": "KRT20", "two-siRNA summed score (-2 to +2)": 1, "mean protection from cisplatin (shift in death) (%)": 6.4}
{"Target gene": "PARVB", "two-siRNA summed score (-2 to +2)": 1, "mean protection from cisplatin (shift in death) (%)": 13.4}
{"Target gene": "NCAPH2", "two-siRNA summed score (-2 to +2)": 0, "mean protection from cisplatin (shift in death) (%)": 3.8}
{"Target gene": "MRPS26", "two-siRNA summed score (-2 to +2)": 0, "mean protection from cisplatin (shift in death) (%)": 9.1}
{"Target gene": "OSTM1", "two-siRNA summed score (-2 to +2)": 0, "mean protection from cisplatin (shift in death) (%)": -3}

Only “mean protection from cisplatin (shift in death) (%)” (4 entries from above):
PIWIL3	3.9
PIP5K1A	7.7
FRYL	12.1
VAMP4	-6.3
